Reference: paper PMC7576778, “The tomato receptor CuRe1 senses a cell wall protein to identify Cuscuta as a pathogen” (Nature Communications, 2020)
Results are given in words; binding and its absence hold for the method and conditions named. In cells and extracts the contact can be indirect. A result given as binding can be weak or reduced; the word gives no strength.

Target: Cuscuta Receptor 1 (CuRe1), myc-tagged (tomato (Solanum lycopersicum))
Assay: cross-linking; in planta affinity cross-linking: N. benthamiana leaves expressing 35S::CuRe1:myc infiltrated with 10 nM bio-Crip29 in ddH2O with or without 10 uM unlabeled competitor; after 5 min 2 mM EGS in 25 mM HEPES pH 7.5; harvested 20 min later; myc-trap immunoprecipitation; biotin detected with streptavidin-AP; only the binder purified

Row | Binder | binding
1 | GKGKNCGNSGCCGGAYSNGQCKRCCAYKG (biotin on the N-terminus) [bio-Crip29 (N-terminally biotinylated 29-aa Crip peptide)] | binds
2 | NCGNSGCCGGAYSNGQCKRCC [Crip21 (cysteine-rich peptide 21), minimal peptide epitope of CrGRP] | binds
